# Experimental data: publication doi:10.1101/453811
# Sequences of proteins named here, by UniProt entry; tags and fusion partners are left off.
# UniProt Q04477: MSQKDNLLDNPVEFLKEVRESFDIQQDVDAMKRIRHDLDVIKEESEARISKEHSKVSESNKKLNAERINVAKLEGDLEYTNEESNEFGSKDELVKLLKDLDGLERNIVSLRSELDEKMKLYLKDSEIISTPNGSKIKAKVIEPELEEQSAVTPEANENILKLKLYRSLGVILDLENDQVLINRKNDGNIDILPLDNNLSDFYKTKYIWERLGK
# UniProt P40460: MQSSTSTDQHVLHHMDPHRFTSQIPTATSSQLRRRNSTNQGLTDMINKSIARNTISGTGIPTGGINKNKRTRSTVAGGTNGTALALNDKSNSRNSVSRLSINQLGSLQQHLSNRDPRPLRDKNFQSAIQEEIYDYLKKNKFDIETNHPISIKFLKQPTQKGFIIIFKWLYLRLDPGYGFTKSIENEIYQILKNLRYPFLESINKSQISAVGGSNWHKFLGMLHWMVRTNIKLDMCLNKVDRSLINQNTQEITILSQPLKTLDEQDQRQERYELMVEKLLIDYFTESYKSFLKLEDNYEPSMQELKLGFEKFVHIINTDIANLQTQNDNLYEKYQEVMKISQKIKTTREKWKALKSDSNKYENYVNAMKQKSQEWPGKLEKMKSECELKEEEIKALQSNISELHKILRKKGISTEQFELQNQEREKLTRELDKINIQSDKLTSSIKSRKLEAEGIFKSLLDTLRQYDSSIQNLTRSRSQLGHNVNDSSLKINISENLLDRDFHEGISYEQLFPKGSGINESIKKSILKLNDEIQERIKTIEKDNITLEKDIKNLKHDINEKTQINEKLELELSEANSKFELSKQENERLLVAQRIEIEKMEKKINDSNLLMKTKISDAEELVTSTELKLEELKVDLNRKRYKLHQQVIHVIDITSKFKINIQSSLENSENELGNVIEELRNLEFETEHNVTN
# Where two headings read alike, the source gives them in different places. Results are given in words; binding and its absence hold for the method and conditions named. Binding seen in cells or lysates may run through a third protein. Some binding calls cover weakened binding; strength is not graded here. For some of these results: Tags and fused reporters may be left off the sequences shown.
# T1: Dsn1-6His-3Flag (S. cerevisiae) (UniProt P40568)
# T1 sequence: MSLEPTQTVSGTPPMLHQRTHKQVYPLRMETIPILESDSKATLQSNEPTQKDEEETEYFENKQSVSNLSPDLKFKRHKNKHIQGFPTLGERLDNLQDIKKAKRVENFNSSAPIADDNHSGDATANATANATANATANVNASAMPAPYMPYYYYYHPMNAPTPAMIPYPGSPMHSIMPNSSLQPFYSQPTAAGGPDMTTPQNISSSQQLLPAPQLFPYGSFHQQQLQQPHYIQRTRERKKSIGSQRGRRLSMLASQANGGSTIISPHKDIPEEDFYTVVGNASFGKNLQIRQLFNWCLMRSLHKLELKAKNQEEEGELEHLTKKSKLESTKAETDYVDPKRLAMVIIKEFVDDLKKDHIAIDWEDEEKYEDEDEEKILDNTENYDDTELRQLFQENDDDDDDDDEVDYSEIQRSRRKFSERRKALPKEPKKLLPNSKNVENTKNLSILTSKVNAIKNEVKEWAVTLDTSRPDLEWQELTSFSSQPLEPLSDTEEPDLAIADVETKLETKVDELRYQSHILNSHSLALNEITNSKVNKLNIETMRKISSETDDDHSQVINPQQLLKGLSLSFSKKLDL
# Columns and labels:
# Assay in all cases: co-IP
# [1] = target: T1, Dsn1-6His-3Flag (S. cerevisiae)
# [2] = target: Spc24-6His-3Flag (S. cerevisiae) (UniProt Q04477)
# [3] = target: T1, Dsn1-6His-3Flag (S. cerevisiae); remark: listed apart in the source
Molecule,binding [1],binding [2],binding [3]
Ndc80 (from UniProt P40460 1-691),binds,binds,
Stu2^ccΔ::bZIP-3V5 (stu2(Δ658-761::GDGAGL linker-GCN4(249-281) bZIP-GDGAGL linker)-3V5) (from UniProt P46675;P03069),binds,,
"Stu2-3V5 (STU2^WT) (protein, UniProt P46675 1-888) MSGEEEVDYTTLPLEERLTYKLWKARLEAYKELNQLFRNSVGDISRDDNIQIYWRDPTLFAQYITDSNVVAQEQAIVALNSLIDAFASSSLKNAHNITLISTWTPLLVEKGLTSSRATTKTQSMSCILSLCGLDTSITQSVELVIPFFEKKLPKLIAAAANCVYELMAAFGLTNVNVQTFLPELLKHVPQLAGHGDRNVRSQTMNLIVEIYKVTGNNSDLLEEILFKKLKPIQVKDLHKLFAKVGDEPSSSKMLFEWEKRELEKKRSQEEEARKRKSILSNDEGEYQIDKDGDTLMGMETDMPPSKQQSGVQIDTFSMLPEETILDKLPKDFQERITSSKWKDRVEALEEFWDSVLSQTKKLKSTSQNYSNLLGIYGHIIQKDANIQAVALAAQSVELICDKLKTPGFSKDYVSLVFTPLLDRTKEKKPSVIEAIRKALLTICKYYDPLASSGRNEDMLKDILEHMKHKTPQIRMECTQLFNASMKEEKDGYSTLQRYLKDEVVPIVIQIVNDTQPAIRTIGFESFAILIKIFGMNTFVKTLEHLDNLKRKKIEETVKTLPNFSIASGSTHSTIETNKQTGPMENKFLLKKSSVLPSKRVASSPLRNDNKSKVNPIGSVASASKPSMVAANNKSRVLLTSKSLATPKNVVANSTDKNEKLIEEYKYRLQKLQNDEMIWTKERQSLLEKMNNTENYKIEMIKENEMLREQLKEAQSKLNEKNIQLRSKEIDVNKLSDRVLSLENELRNMEIELDRNKKRNDTNLQSMGTISSYSIPSSTVSSNYGVKSLSSALPFKEEEDVRRKEDVNYERRSSESIGDLPHRVNSLNIRPYRKNGTGVSSVSDDLDIDFNDSFASEESYKRAAAVTSTLKARIEKMKAKSRREGTTRT",,,binds
"Stu2^SK-richΔ-3V5 (stu2(Δ551-657::GDGAGL linker)-3V5) (domain or fragment, UniProt P46675) MSGEEEVDYTTLPLEERLTYKLWKARLEAYKELNQLFRNSVGDISRDDNIQIYWRDPTLFAQYITDSNVVAQEQAIVALNSLIDAFASSSLKNAHNITLISTWTPLLVEKGLTSSRATTKTQSMSCILSLCGLDTSITQSVELVIPFFEKKLPKLIAAAANCVYELMAAFGLTNVNVQTFLPELLKHVPQLAGHGDRNVRSQTMNLIVEIYKVTGNNSDLLEEILFKKLKPIQVKDLHKLFAKVGDEPSSSKMLFEWEKRELEKKRSQEEEARKRKSILSNDEGEYQIDKDGDTLMGMETDMPPSKQQSGVQIDTFSMLPEETILDKLPKDFQERITSSKWKDRVEALEEFWDSVLSQTKKLKSTSQNYSNLLGIYGHIIQKDANIQAVALAAQSVELICDKLKTPGFSKDYVSLVFTPLLDRTKEKKPSVIEAIRKALLTICKYYDPLASSGRNEDMLKDILEHMKHKTPQIRMECTQLFNASMKEEKDGYSTLQRYLKDEVVPIVIQIVNDTQPAIRTIGFESFAILIKIFGMNTFVKTLEHLDNLKRGDGAGLEKLIEEYKYRLQKLQNDEMIWTKERQSLLEKMNNTENYKIEMIKENEMLREQLKEAQSKLNEKNIQLRSKEIDVNKLSDRVLSLENELRNMEIELDRNKKRNDTNLQSMGTISSYSIPSSTVSSNYGVKSLSSALPFKEEEDVRRKEDVNYERRSSESIGDLPHRVNSLNIRPYRKNGTGVSSVSDDLDIDFNDSFASEESYKRAAAVTSTLKARIEKMKAKSRREGTTRT",,,binds
"Stu2^ccΔ-3V5 (stu2(Δ658-761::GDGAGL linker)-3V5) (domain or fragment, UniProt P46675) MSGEEEVDYTTLPLEERLTYKLWKARLEAYKELNQLFRNSVGDISRDDNIQIYWRDPTLFAQYITDSNVVAQEQAIVALNSLIDAFASSSLKNAHNITLISTWTPLLVEKGLTSSRATTKTQSMSCILSLCGLDTSITQSVELVIPFFEKKLPKLIAAAANCVYELMAAFGLTNVNVQTFLPELLKHVPQLAGHGDRNVRSQTMNLIVEIYKVTGNNSDLLEEILFKKLKPIQVKDLHKLFAKVGDEPSSSKMLFEWEKRELEKKRSQEEEARKRKSILSNDEGEYQIDKDGDTLMGMETDMPPSKQQSGVQIDTFSMLPEETILDKLPKDFQERITSSKWKDRVEALEEFWDSVLSQTKKLKSTSQNYSNLLGIYGHIIQKDANIQAVALAAQSVELICDKLKTPGFSKDYVSLVFTPLLDRTKEKKPSVIEAIRKALLTICKYYDPLASSGRNEDMLKDILEHMKHKTPQIRMECTQLFNASMKEEKDGYSTLQRYLKDEVVPIVIQIVNDTQPAIRTIGFESFAILIKIFGMNTFVKTLEHLDNLKRKKIEETVKTLPNFSIASGSTHSTIETNKQTGPMENKFLLKKSSVLPSKRVASSPLRNDNKSKVNPIGSVASASKPSMVAANNKSRVLLTSKSLATPKNVVANSTDKNGDGAGLNLQSMGTISSYSIPSSTVSSNYGVKSLSSALPFKEEEDVRRKEDVNYERRSSESIGDLPHRVNSLNIRPYRKNGTGVSSVSDDLDIDFNDSFASEESYKRAAAVTSTLKARIEKMKAKSRREGTTRT",,,no binding
"Stu2^C-termΔ(855-888)-3V5 (stu2(Δ855-888)-3V5) (domain or fragment, UniProt P46675 1-854) MSGEEEVDYTTLPLEERLTYKLWKARLEAYKELNQLFRNSVGDISRDDNIQIYWRDPTLFAQYITDSNVVAQEQAIVALNSLIDAFASSSLKNAHNITLISTWTPLLVEKGLTSSRATTKTQSMSCILSLCGLDTSITQSVELVIPFFEKKLPKLIAAAANCVYELMAAFGLTNVNVQTFLPELLKHVPQLAGHGDRNVRSQTMNLIVEIYKVTGNNSDLLEEILFKKLKPIQVKDLHKLFAKVGDEPSSSKMLFEWEKRELEKKRSQEEEARKRKSILSNDEGEYQIDKDGDTLMGMETDMPPSKQQSGVQIDTFSMLPEETILDKLPKDFQERITSSKWKDRVEALEEFWDSVLSQTKKLKSTSQNYSNLLGIYGHIIQKDANIQAVALAAQSVELICDKLKTPGFSKDYVSLVFTPLLDRTKEKKPSVIEAIRKALLTICKYYDPLASSGRNEDMLKDILEHMKHKTPQIRMECTQLFNASMKEEKDGYSTLQRYLKDEVVPIVIQIVNDTQPAIRTIGFESFAILIKIFGMNTFVKTLEHLDNLKRKKIEETVKTLPNFSIASGSTHSTIETNKQTGPMENKFLLKKSSVLPSKRVASSPLRNDNKSKVNPIGSVASASKPSMVAANNKSRVLLTSKSLATPKNVVANSTDKNEKLIEEYKYRLQKLQNDEMIWTKERQSLLEKMNNTENYKIEMIKENEMLREQLKEAQSKLNEKNIQLRSKEIDVNKLSDRVLSLENELRNMEIELDRNKKRNDTNLQSMGTISSYSIPSSTVSSNYGVKSLSSALPFKEEEDVRRKEDVNYERRSSESIGDLPHRVNSLNIRPYRKNGTGVSSVSDDLDIDFNDSFA",,,no binding
